Test results from the supplement of paper PMC3334620.
Whole data set: some 33,000 sequences, median “E-score (-0.5 to 0.5)” near -0.0014, cut for the highest 2% near 0.25. This is one part of the list.

Target: T1, Cad1 (UniProt P24813)
T1 sequence: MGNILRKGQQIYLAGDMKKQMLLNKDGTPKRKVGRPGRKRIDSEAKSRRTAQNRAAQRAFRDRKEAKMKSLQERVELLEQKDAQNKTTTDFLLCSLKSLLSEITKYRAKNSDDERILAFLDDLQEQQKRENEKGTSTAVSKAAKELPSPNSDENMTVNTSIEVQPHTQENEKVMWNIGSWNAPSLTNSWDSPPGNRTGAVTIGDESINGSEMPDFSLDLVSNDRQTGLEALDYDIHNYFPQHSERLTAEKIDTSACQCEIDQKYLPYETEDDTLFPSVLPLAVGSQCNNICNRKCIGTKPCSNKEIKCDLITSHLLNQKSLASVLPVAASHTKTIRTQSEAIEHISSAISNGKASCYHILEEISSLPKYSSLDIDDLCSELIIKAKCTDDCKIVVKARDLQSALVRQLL
Assay: PBM E-score (8-mer binding enrichment) (E-score (-0.5 to 0.5)); higher = stronger / more preferred TF binding
Settings: protein concentration: 100 nM; construct: GST-full length
In short: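 Universal all-10-mer Agilent arrays, fresh or stripped once, were converted to double-stranded form by primer extension. GST-tagged yeast transcription factors from PURExpress in vitro transcription/translation, full-length or DNA-binding domain only, were applied at about 100-200 nM and detected with fluorescent anti-GST. After masliner normalisation, the Universal PBM Analysis Suite scored each ungapped eight-base word together with its reverse complement by E-score.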

| Sequence | PBM E-score |
| --- | --- |
| AGATTACC | 0.107 |
| CTTATGCA | 0.208 |
| GTAAGTAC | 0.178 |
| AGCACGAA | 0.124 |
| AGTGAGGC | -0.0305 |
| CCACCCAC | -0.037 |
| GCCTGCTA | -0.104 |
| ATTCATTC | 0.188 |
| CATTTTAC | 0.198 |
| AGGCCCCT | -0.317 |
| TACTGCGA | 0.0327 |
| CACGGACA | 0.165 |
| TCAAACGA | 0.0831 |
| GACATATA | 0.0919 |
| CTCCATGA | 0.0675 |
| AAGCGTAA | -0.0377 |
| GAGACTTA | -0.0545 |
| AGCCATAA | 0.0866 |
| AGACATCC | 0.0198 |
| AAATTGTA | 0.138 |
| TAGTAACA | 0.255 |
| CGCTATTC | 0.216 |
| CAGCCGTC | 0.144 |
| AATGCCTC | -0.148 |
| ATTGTATG | 0.0441 |

| Sequence | PBM E-score |
| --- | --- |
| ACGAGTTA | -0.0705 |
| CCCCAAGA | -0.0621 |
| GCAGCTTA | 0.175 |
| GTCTAGAC | -0.0167 |
| TAATTGCA | 0.125 |
| ATACCGCC | 0.0415 |
| GTCTTGTA | -0.181 |
| ATCTGGCC | -0.14 |
| TAATGGTA | 0.14 |
| CCTCCCAC | -0.156 |
| GGTCGGGA | -0.026 |
| CTCATTCC | 0.0154 |
| ACATACCA | -0.126 |
| AACGTTAT | 0.116 |
| ATTGCGGG | -0.0181 |
| CCGGATCG | 0.0999 |
| ACGTAACT | -0.0865 |
| AGAGCAAC | -0.18 |
| AGTATTTG | 0.0255 |
| GATGACGC | 0.00196 |
| CGGCAATC | 0.0196 |
| CGCATGGC | -0.0849 |
| GAAAGACA | -0.00185 |
| CGTTACTA | 0.0425 |
| CCGGAGGC | -0.2 |

| Sequence | PBM E-score |
| --- | --- |
| CTCTCACA | 0.0689 |
| AGTCACGA | 0.0372 |
| ATTCCTAC | 0.0998 |
| AAGTCAAT | -0.0231 |
| ATTATCCG | 0.139 |
| GTGTGCCA | -0.131 |
| CTGTGAGA | -0.11 |
| AAGCGCTC | 0.0197 |
| AAGACCGA | -0.0676 |
| AGCGCTAT | 0.278 |
| AGAACTCG | 0.00613 |
| CAGGTTTC | 0.111 |
| CCGGGTTA | -0.0609 |
| CGTTCTGA | -0.16 |
| GCAGTTCA | 0.0882 |
| ATTATCGG | 0.0117 |
| GGGAGTCA | -0.0614 |
| ACCCCGGG | -0.111 |
| GCTCCATA | -0.0238 |
| CGTGCTCC | -0.112 |
| CTGCAAGA | 0.0739 |
| ATAACCAT | 0.00076 |
| ACCCCATG | -0.141 |
| GACAGAAC | 0.2 |
| GACTGACA | 0.0438 |

| Sequence | PBM E-score |
| --- | --- |
| GACTCTCC | -0.175 |
| AAATCCGT | 0.0225 |
| TTCCGGAA | 0.316 |
| CAAAGAAA | 0.0436 |
| CTACCGGC | -0.058 |
| ACCTTGCG | 0.0443 |
| AGAGTCCA | -0.06 |
| ATTCGGTG | 0.0535 |
| AAGCTACT | 0.133 |
| AAAGTTAG | 0.107 |
| ATGTCGCC | -0.131 |
| CATACCAG | -0.0533 |
| GCTGGTTA | 0.0516 |
| ATATGAAG | -0.0301 |
| ATGTGCAA | 0.00609 |
| CACTAGCC | -0.0631 |
| CACAAAAA | 0.186 |
| AACCGCCT | -0.0343 |
| ACGATTAT | 0.135 |
| AGCAGGTG | 0.0922 |
| GCGCCCCA | 0.00354 |
| AACAGCTC | -0.0355 |
| TAAGTAAA | 0.118 |
| AGGAAATG | 0.0772 |
| ATTTTGAG | 0.0399 |

Given as comma-separated lines: entries from further up
Sequence,PBM E-score
GTCTAGAC,-0.0167
TAATTGCA,0.125
ATACCGCC,0.0415
GTCTTGTA,-0.181
ATCTGGCC,-0.14

Continued:

| Sequence | PBM E-score |
| --- | --- |
| CGGTCACC | -0.165 |
| AGCGGGCA | -0.281 |
| CAGTTGCG | 0.124 |
| AAGCTAAA | -0.0688 |
| ACAGTTTG | 0.0317 |
| CCGTACAA | 0.0547 |
| CGAGCCAG | 0.0263 |
| AATCCACC | -0.0222 |
| ACACTGGT | -0.0108 |
| ATAACGTG | 0.0667 |
| ACTGTACG | -0.0253 |
| AGCCTATC | 0.028 |
| CAAGCCAG | -0.0467 |
| CAAATGGA | 0.0716 |
| ACTTCGTA | -0.0581 |
| AGCGTCAG | 0.0724 |
| CCTGATGA | 0.0887 |
| AAGAATCG | 0.176 |
| GACAACGC | 0.0253 |
| ACTTACCC | 0.0598 |
| GGGGATGA | -0.094 |
| CCCACACA | 0.00769 |
| ACGACCTG | -0.216 |
| AAGTGAGC | -0.0644 |
| TAAGCCGA | 0.181 |

Looked up one by one from the list above (three):

| Sequence | PBM E-score |
| --- | --- |
| ACTTCGTA | -0.0581 |
| AAGAATCG | 0.176 |
| CAAGCCAG | -0.0467 |

Later entries:

| Sequence | PBM E-score |
| --- | --- |
| ACTACCTC | 0.00569 |
| GTAAGCTA | 0.298 |
| ATAAACCC | 0.0626 |
| CAAACAAC | 0.185 |
| ACTTCTGA | -0.00477 |
| ACCTACCG | -0.0813 |
| CGCTGAAG | 0.0981 |
| CCGTTGCA | -0.0118 |
| ACGTGCAG | -0.114 |
| GTTATGAA | 0.0492 |
| CAATTGAA | -0.0146 |
| CTGGATGC | -0.195 |
| AACTCCTT | -0.168 |
| GAGTCATC | 0.127 |
| ATGAAGGA | 0.0663 |
| ACCTCGCG | 0.136 |
| CTCTTTGA | -0.168 |
| ATCAATTG | 0.186 |
| GCCACCCA | -0.126 |
| ACTGGCCG | -0.244 |
| AGGATGTA | 0.0477 |
| GAAAAATC | 0.131 |
| GACGTTTA | 0.0281 |
| CTGTCTAC | 0.0091 |
| AACTCACC | -0.0279 |

Some of the entries so far, tab-delimited:
Sequence	PBM E-score
ACTACCTC	0.00569
AACTCCTT	-0.168
ACTGGCCG	-0.244

Going on with the list:

| Sequence | PBM E-score |
| --- | --- |
| ACAATCTC | -0.0192 |
| ATAGAAGC | 0.119 |
| CGTAGAAC | -0.171 |
| GTTTGAGA | -0.0355 |
| TAAGCAAA | 0.18 |
| CAGTACCG | -0.126 |
| GCAACGGA | 0.203 |
| CGCGATGC | -0.0576 |
| CAGGACGC | -0.0192 |
| TGTGTCAA | -0.0431 |
| CAAATATA | -0.0118 |
| CTTCTCCA | -0.191 |
| CATATCGG | -0.106 |
| AGGGTCCG | -0.306 |
| ACAGGTGA | -0.184 |
| AGTTCCCA | 0.181 |
| GCCCGCGA | 0.0255 |
| CAGGGGGC | -0.397 |
| AGCGGTAG | -0.224 |
| CCGCGTTC | 0.146 |
| GACGATGA | -0.0492 |
| GTCCTGGA | -0.0364 |
